# Reference: the supplement of paper PMC9549374
# Some of the results follow. Rule as the data show it: active = 2-fold of DMSO or more and inactive = the rest. Single values of this set are uncertain. Some low values are a fixed figure set by the source, not a measured ratio.
# Tested on: CM7/1-hgem mouse ES cell-derived cardiomyocytes
# Assay: maximal number of mAG-hGem(1/110)-positive cardiomyocytes over 96 h, fold-change vs DMSO; higher = more cardiomyocyte cell cycle activity
# Details: 1 µM; 96 (max over 12 h time points) h
row,Compound,maximal number
1,CCN(CC)C(=O)c1cccc(C)c1,inactive: 1
2,COc1ccc(Cl)cc1C(=O)NCCc1ccc(S(=O)(=O)NC(=O)NC2CCCCC2)cc1,inactive: 1
3,Cc1cc(OC(=O)c2c(C)cc(O)cc2O)cc(O)c1C(=O)O,inactive: 1
4,C=C1C2CC[C@@]3(C)[C@H](c4ccoc4)OC(=O)C[C@]13O[C@H]1CC(=O)C(C)(C)[C@H](C(O)C(=O)OC)[C@@]21C (some centres not stated),inactive: 0
5,Nc1ncn([C@@H]2O[C@H](CO)[C@@H](O)[C@H]2O)c(=O)n1,inactive: 1
6,CC(=O)N(CC(O)CO)c1c(I)c(C(=O)NCC(O)CO)c(I)c(C(=O)NCC(O)CO)c1I (configuration not stated),inactive: 1
7,CC1CCc2c(N3CCC(O)CC3)c(F)cc3c(=O)c(C(=O)O)cn1c23 (configuration not stated),inactive: 1
8,CC1(C)[C@@H](O[C@H]2O[C@H](C(=O)O)[C@@H](O)[C@H](O)[C@H]2O[C@@H]2O[C@H](C(=O)O)[C@@H](O)[C@H](O)[C@H]2O)CC[C@]2(C)[C@H]3C(=O)C=C4[C@@H]5C[C@@](C)(C(=O)O)CC[C@]5(C)CC[C@@]4(C)[C@]3(C)CC[C@@H]12,inactive: 0
9,CCN[C@H]1CN(CCCOC)S(=O)(=O)c2sc(S(N)(=O)=O)cc21,inactive: 1
10,O=C(O[C@@H]1Cc2c(O)cc(O)cc2O[C@@H]1c1cc(O)c(=O)c2c(O)c(O)cc([C@H]3Oc4cc(O)cc(O)c4C[C@H]3O)c2c1)c1cc(O)c(O)c(O)c1,inactive: 1
11,CC(N)C(=O)OC(C)(C)Cc1ccc(Cl)cc1 (configuration not stated),inactive: 0.5
12,COc1c(CC(=O)c2cc3c(cc2O)OC(C)(C)C(O)C3)ccc2c1C=CC(C)(C)O2 (configuration not stated),inactive: 1

# Exported with tabs: 2 of the compounds above.
row	Compound	maximal number
9	CCN[C@H]1CN(CCCOC)S(=O)(=O)c2sc(S(N)(=O)=O)cc21	inactive: 1
10	O=C(O[C@@H]1Cc2c(O)cc(O)cc2O[C@@H]1c1cc(O)c(=O)c2c(O)c(O)cc([C@H]3Oc4cc(O)cc(O)c4C[C@H]3O)c2c1)c1cc(O)c(O)c(O)c1	inactive: 1
